Experimental data: PubChem BioAssay AID1259405 (NCATS, 2018)
The deposit covers about 50,000 reagents; below is an unselected part. About 4,000 of them (8%) count as active. 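Mouse siRNA library applied to hamster cells; one well for each siRNA.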 Reagents against one gene are numbered here.

Test: 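Silenced genes that increase secreted GFP made by CHO cells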 (primary screen)
Cells: Chinese hamster CHO-K1 ovary cells with stable secreted eGFP expression
Knock-down reagent: single siRNA against mouse genes, 0.8 pmol siRNA per well (2 µl of 400 nM stock)
Time to read-out: 3 days
Measured: 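Per-well intracellular GFP measured by laser scanning cytometry, plus viability from ATP luminescence, each relative to plate median of non-targeting control wells, in %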
Direction: GFP, % of control: higher = more GFP per well, higher productivity; viability (ATP), % of control: higher = more viable cells (more ATP)
Rule for the call: 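Called active when intracellular GFP, relative to negative control, is at or above 120%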

| target | reagent | GFP, % of control | viability (ATP), % of control | activity call |
| --- | --- | --- | --- | --- |
| Ubox5 | 1 | 86.6 | 88.2 | inactive |
| Ubox5 | 2 | 93.6 | 78 | inactive |
| Ubox5 | 3 | 121 | 83.1 | active |
| Sptbn1 | 1 | 80.1 | 52.5 | inactive |
| Sptbn1 | 2 | 59.9 | 67.8 | inactive |
| Sptbn1 | 3 | 60.2 | 47.8 | inactive |
| Akap1 | 1 | 49.7 | 26.2 | inactive |
| Akap1 | 2 | 58.3 | 59.6 | inactive |
| Rpusd4 | 1 | 50.6 | 49.3 | inactive |
| Rpusd4 | 2 | 94.5 | 105 | inactive |
| Rpusd4 | 3 | 83.5 | 88.7 | inactive |
| Cnksr3 | 1 | 87.4 | 76.6 | inactive |
| Cnksr3 | 2 | 136 | 119 | active |
| Marchf6 | 1 | 104 | 115 | inactive |
| Marchf6 | 2 | 79.6 | 78.8 | inactive |
| Marchf6 | 3 | 130 | 104 | active |
| Bpifa2 | 1 | 85.2 | 79.5 | inactive |
| Bpifa2 | 2 | 47.6 | 66.9 | inactive |
| Bpifa2 | 3 | 97.5 | 103 | inactive |
| Zdhhc20 | 1 | 68.6 | 63.1 | inactive |
| Zdhhc20 | 2 | 78.1 | 98.1 | inactive |
| Zdhhc20 | 3 | 91.6 | 117 | inactive |
| Plekhg4 | 1 | 126 | 82.1 | active |
| Plekhg4 | 2 | 72.9 | 95 | inactive |
| Plekhg4 | 3 | 55.2 | 54.3 | inactive |
| Ak5 | 1 | 52.9 | 25.2 | inactive |
| Ak5 | 2 | 102 | 65.1 | inactive |
| Ak5 | 3 | 95.5 | 93.5 | inactive |
| Mospd1 | 1 | 97.5 | 64.6 | inactive |
| Mospd1 | 2 | 65.2 | 48.7 | inactive |
| Mospd1 | 3 | 61.9 | 42 | inactive |
| P3h2 | 1 | 87.1 | 100 | inactive |
| P3h2 | 2 | 61.4 | 83.8 | inactive |
| Hoxb7 | 1 | 112 | 67 | inactive |
| Hoxb7 | 2 | 90.1 | 73.9 | inactive |
| Hoxb7 | 3 | 87.7 | 108 | inactive |
| Rnf19a | 1 | 117 | 68.7 | inactive |
| Rnf19a | 2 | 76 | 85.3 | inactive |
| Rnf19a | 3 | 75.3 | 77.6 | inactive |
| Uts2b | 1 | 46.1 | 49.2 | inactive |
| Uts2b | 2 | 106 | 84.7 | inactive |
| Uts2b | 3 | 99.4 | 91.7 | inactive |
| Or7e174 | 1 | 76.1 | 57.4 | inactive |
| Or7e174 | 2 | 78.9 | 46.5 | inactive |
| Or7e174 | 3 | 112 | 108 | inactive |
| Or2at1 | 1 | 60 | 84.9 | inactive |
| Or2at1 | 2 | 102 | 92.1 | inactive |
| Or2at1 | 3 | 39.7 | 68.9 | inactive |
| Epha2 | 1 | 94.9 | 86.1 | inactive |
| Cyp2c39 | 1 | 48.2 | 53.9 | inactive |
| Cyp2c39 | 2 | 92.8 | 86.1 | inactive |
| Cyp2c39 | 3 | 71.7 | 93 | inactive |
| Epha8 | 1 | 64.7 | 74.3 | inactive |
| Epha8 | 2 | 78.6 | 89.9 | inactive |
| Epha8 | 3 | 62.1 | 48.3 | inactive |
| Cyp8b1 | 1 | 60.9 | 53.5 | inactive |
| Cyp8b1 | 2 | 71.3 | 79.1 | inactive |
| Cyp8b1 | 3 | 86.1 | 66 | inactive |

Single entries from the list:
Under “activity call”, Or2at1 #1 is entered as inactive
Result of Hoxb7 #2 under “viability (ATP), % of control”: 73.9
Zdhhc20 #1, GFP, % of control = 68.6
